Test results published in article PMC5951673.
No constants are given. Whether binding was seen depends on the method and setting. Binding seen in cells or lysates may run through a third protein. Some results given as binding are weak or reduced against the parent protein; the word gives no strength. For part of these data: Sequences can lack the tags named with a protein.

Sequences of proteins named here, by UniProt entry; tags and fusion partners are left off. Residues count along the entry.
UniProt Q13586, residues 23-685: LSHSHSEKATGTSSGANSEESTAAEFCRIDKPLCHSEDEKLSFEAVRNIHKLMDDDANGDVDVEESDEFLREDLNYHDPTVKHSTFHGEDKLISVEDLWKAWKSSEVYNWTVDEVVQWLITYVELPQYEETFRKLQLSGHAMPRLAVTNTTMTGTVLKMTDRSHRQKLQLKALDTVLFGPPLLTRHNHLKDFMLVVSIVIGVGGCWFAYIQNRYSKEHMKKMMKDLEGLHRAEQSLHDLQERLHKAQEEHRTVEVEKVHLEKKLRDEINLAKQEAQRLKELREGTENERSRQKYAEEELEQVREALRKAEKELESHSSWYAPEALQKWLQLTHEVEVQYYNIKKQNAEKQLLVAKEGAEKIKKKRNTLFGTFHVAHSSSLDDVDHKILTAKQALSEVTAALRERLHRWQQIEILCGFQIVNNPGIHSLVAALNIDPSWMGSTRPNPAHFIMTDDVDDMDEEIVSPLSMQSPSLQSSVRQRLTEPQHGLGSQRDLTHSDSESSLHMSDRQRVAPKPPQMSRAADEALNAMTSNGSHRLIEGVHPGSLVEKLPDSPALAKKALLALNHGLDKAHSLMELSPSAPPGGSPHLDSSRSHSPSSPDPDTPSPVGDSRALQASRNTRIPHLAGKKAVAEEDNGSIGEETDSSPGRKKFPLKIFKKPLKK

Tests used:
[1] = biological target: STIM-1, endogenous in MCF10A (human (endogenous in MCF10A)) (UniProt Q13586); test: co-IP; MCF10A cells grown to superconfluency and treated with CPA to activate STIM-1; endogenous proteins; vector or shRNA targeting CLCA2
[2] = biological target: T1, CLCA2-Flag (human Chloride Channel Accessory 2, Flag-tagged) (human) (UniProt Q9UQC9); test: co-IP; HEK293 cells transduced with CLCA2-flag or vector; cleared NP40 lysates (25mM Tris pH 7.6, 150mM NaCl, 0.5% NP-40); protein A/G beads washed four times; immunoblot, bands quantified by fluorimetric scans (Licor Odyssey); repeated on surface-biotinylated cells (Fig 5A)
T1 sequence: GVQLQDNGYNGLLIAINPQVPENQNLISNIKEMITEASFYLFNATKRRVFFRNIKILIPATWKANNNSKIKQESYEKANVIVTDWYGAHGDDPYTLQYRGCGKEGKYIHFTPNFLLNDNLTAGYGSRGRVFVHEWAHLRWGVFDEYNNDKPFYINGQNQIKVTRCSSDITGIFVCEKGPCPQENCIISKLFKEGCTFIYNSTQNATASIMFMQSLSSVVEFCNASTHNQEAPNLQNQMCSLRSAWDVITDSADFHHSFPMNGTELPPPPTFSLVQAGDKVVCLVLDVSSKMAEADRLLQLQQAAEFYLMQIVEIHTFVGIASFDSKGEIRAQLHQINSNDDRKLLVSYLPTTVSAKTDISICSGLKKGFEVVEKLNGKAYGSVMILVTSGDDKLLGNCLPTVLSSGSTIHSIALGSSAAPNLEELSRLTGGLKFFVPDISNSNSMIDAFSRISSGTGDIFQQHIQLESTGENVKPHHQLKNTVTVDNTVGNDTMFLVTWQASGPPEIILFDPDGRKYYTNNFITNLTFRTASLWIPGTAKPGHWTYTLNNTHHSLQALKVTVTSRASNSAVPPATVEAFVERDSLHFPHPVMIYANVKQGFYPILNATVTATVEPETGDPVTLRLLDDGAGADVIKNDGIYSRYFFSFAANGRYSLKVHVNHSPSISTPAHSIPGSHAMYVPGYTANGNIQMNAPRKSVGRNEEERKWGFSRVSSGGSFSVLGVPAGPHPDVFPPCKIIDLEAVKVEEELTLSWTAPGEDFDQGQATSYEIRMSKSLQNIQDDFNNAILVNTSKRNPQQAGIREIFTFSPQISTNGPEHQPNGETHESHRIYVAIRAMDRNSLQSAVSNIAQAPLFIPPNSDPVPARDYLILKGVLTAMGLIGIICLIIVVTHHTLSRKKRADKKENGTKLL

[3] = biological target: T2, CLCA2, transiently over-expressed in HEK293T (human) (UniProt Q9UQC9); test: co-IP; HEK293T cells with transient over-expression of CLCA2 and TMEM16A in different concentration ratios; immunoprecipitated and detected with antibodies specific for either protein
T2 sequence: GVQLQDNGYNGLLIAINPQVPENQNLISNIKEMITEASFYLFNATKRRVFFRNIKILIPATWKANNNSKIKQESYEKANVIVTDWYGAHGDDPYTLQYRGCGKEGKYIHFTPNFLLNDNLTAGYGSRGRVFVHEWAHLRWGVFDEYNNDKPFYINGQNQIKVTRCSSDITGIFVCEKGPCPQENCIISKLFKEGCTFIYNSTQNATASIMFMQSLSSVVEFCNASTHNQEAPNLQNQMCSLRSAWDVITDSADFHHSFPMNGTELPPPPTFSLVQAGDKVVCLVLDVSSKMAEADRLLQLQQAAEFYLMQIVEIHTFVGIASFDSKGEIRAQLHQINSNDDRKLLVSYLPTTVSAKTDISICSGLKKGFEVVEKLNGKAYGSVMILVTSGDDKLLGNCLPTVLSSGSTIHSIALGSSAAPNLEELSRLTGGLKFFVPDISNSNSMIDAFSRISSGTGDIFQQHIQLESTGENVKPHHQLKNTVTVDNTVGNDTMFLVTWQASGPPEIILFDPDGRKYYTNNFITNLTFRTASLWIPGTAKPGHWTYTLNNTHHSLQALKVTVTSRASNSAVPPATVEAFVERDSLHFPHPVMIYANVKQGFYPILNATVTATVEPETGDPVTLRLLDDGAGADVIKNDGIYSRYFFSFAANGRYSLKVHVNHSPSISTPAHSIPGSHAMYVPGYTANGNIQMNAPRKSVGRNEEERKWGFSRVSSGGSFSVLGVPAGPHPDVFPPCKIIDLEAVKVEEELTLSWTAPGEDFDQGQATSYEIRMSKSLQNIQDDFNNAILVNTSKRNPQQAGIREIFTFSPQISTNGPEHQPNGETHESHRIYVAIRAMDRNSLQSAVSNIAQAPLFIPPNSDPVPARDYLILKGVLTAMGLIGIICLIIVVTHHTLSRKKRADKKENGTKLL

B1: CLCA2, endogenous in MCF10A (protein, UniProt Q9UQC9 32-943)
chain: GVQLQDNGYNGLLIAINPQVPENQNLISNIKEMITEASFYLFNATKRRVFFRNIKILIPATWKANNNSKIKQESYEKANVIVTDWYGAHGDDPYTLQYRGCGKEGKYIHFTPNFLLNDNLTAGYGSRGRVFVHEWAHLRWGVFDEYNNDKPFYINGQNQIKVTRCSSDITGIFVCEKGPCPQENCIISKLFKEGCTFIYNSTQNATASIMFMQSLSSVVEFCNASTHNQEAPNLQNQMCSLRSAWDVITDSADFHHSFPMNGTELPPPPTFSLVQAGDKVVCLVLDVSSKMAEADRLLQLQQAAEFYLMQIVEIHTFVGIASFDSKGEIRAQLHQINSNDDRKLLVSYLPTTVSAKTDISICSGLKKGFEVVEKLNGKAYGSVMILVTSGDDKLLGNCLPTVLSSGSTIHSIALGSSAAPNLEELSRLTGGLKFFVPDISNSNSMIDAFSRISSGTGDIFQQHIQLESTGENVKPHHQLKNTVTVDNTVGNDTMFLVTWQASGPPEIILFDPDGRKYYTNNFITNLTFRTASLWIPGTAKPGHWTYTLNNTHHSLQALKVTVTSRASNSAVPPATVEAFVERDSLHFPHPVMIYANVKQGFYPILNATVTATVEPETGDPVTLRLLDDGAGADVIKNDGIYSRYFFSFAANGRYSLKVHVNHSPSISTPAHSIPGSHAMYVPGYTANGNIQMNAPRKSVGRNEEERKWGFSRVSSGGSFSVLGVPAGPHPDVFPPCKIIDLEAVKVEEELTLSWTAPGEDFDQGQATSYEIRMSKSLQNIQDDFNNAILVNTSKRNPQQAGIREIFTFSPQISTNGPEHQPNGETHESHRIYVAIRAMDRNSLQSAVSNIAQAPLFIPPNSDPVPARDYLILKGVLTAMGLIGIICLIIVVTHHTLSRKKRADKKENGTKLL
In the case of B1, the binding [1] is reported as “binds”.

B2: Bestrophin 1 (protein, UniProt O76090 1-585)
chain: MTITYTSQVANARLGSFSRLLLCWRGSIYKLLYGEFLIFLLCYYIIRFIYRLALTEEQQLMFEKLTLYCDSYIQLIPISFVLGFYVTLVVTRWWNQYENLPWPDRLMSLVSGFVEGKDEQGRLLRRTLIRYANLGNVLILRSVSTAVYKRFPSAQHLVQAGFMTPAEHKQLEKLSLPHNMFWVPWVWFANLSMKAWLGGRIRDPILLQSLLNEMNTLRTQCGHLYAYDWISIPLVYTQVVTVAVYSFFLTCLVGRQFLNPAKAYPGHELDLVVPVFTFLQFFFYVGWLKVAEQLINPFGEDDDDFETNWIVDRNLQVSLLAVDEMHQDLPRMEPDMYWNKPEPQPPYTAASAQFRRASFMGSTFNISLNKEEMEFQPNQEDEEDAHAGIIGRFLGLQSHDHHPPRANSRTKLLWPKRESLLHEGLPKNHKAAKQNVRGQEDNKAWKLKAVDAFKSAPLYQRPGYYSAPQTPLSPTPMFFPLEPSAPSKLHSVTGIDTKDKSLKTVSSGAKKSFELLSESDGALMEHPEVSQVRRKTVEFNLTDMPEIPENHLKEPLEQSPTNIHTTLKDHMDPYWALENRDEAHS
With B2 the binding [2] was “no binding”.

B3: TMEM16A (Anoctamin1), transiently over-expressed in HEK293T (protein, UniProt Q5XXA6 1-986)
chain: MRVNEKYSTLPAEDRSVHIINICAIEDIGYLPSEGTLLNSLSVDPDAECKYGLYFRDGRRKVDYILVYHHKRPSGNRTLVRRVQHSDTPSGARSVKQDHPLPGKGASLDAGSGEPPMDYHEDDKRFRREEYEGNLLEAGLELERDEDTKIHGVGFVKIHAPWNVLCREAEFLKLKMPTKKMYHINETRGLLKKINSVLQKITDPIQPKVAEHRPQTMKRLSYPFSREKQHLFDLSDKDSFFDSKTRSTIVYEILKRTTCTKAKYSMGITSLLANGVYAAAYPLHDGDYNGENVEFNDRKLLYEEWARYGVFYKYQPIDLVRKYFGEKIGLYFAWLGVYTQMLIPASIVGIIVFLYGCATMDENIPSMEMCDQRHNITMCPLCDKTCSYWKMSSACATARASHLFDNPATVFFSVFMALWAATFMEHWKRKQMRLNYRWDLTGFEEEEEAVKDHPRAEYEARVLEKSLKKESRNKEKRRHIPEESTNKWKQRVKTAMAGVKLTDKVKLTWRDRFPAYLTNLVSIIFMIAVTFAIVLGVIIYRISMAAALAMNSSPSVRSNIRVTVTATAVIINLVVIILLDEVYGCIARWLTKIEVPKTEKSFEERLIFKAFLLKFVNSYTPIFYVAFFKGRFVGRPGDYVYIFRSFRMEECAPGGCLMELCIQLSIIMLGKQLIQNNLFEIGIPKMKKLIRYLKLKQQSPPDHEECVKRKQRYEVDYNLEPFAGLTPEYMEMIIQFGFVTLFVASFPLAPLFALLNNIIEIRLDAKKFVTELRRPVAVRAKDIGIWYNILRGIGKLAVIINAFVISFTSDFIPRLVYLYMYSKNGTMHGFVNHTLSSFNVSDFQNGTAPNDPLDLGYEVQICRYKDYREPPWSENKYDISKDFWAVLAARLAFVIVFQNLVMFMSDFVDWVIPDIPKDISQQIHKEKVLMVELFMREEQDKQQLLETWMEKERQKDEPPCNHHNTKACPDSLGSPAPSHAYHGGVL
In the case of B3, the binding [3] is reported as “no binding”.
